Results as given in patent publication US12187705B2, “Heteroaryl-triazole and heteroaryl-tetrazole compounds as pesticides” (Bayer Aktiengesellschaft, priority 2018, dated 2025).
Some entries share one result that the patent states for a list of compounds. For at least one compound, name, drawing or mass did not settle the structure. Some compounds share one range, which may span the group rather than tell each member.

Legend:
Type in all cases: in vivo
[1] = test system: Musca domestica strain WHO-N; test: Musca domestica test (MUSCDO surface treatment & contact assay); conditions: surface concentration 4 mg/m^2, 30 minutes exposure, 24 hours after contact
Procedure: Musca domestica Test (MUSCDO Surface Treatment & Contact Assay)
(§1) Solvent: Aceton+2000 ppm rapeseed oil methyl ester (RME)
(§2) In order to produce a sufficient, active ingredient containing solution it is necessary to solve the test-compound in the solvent-mix (Acetone at 2 mg/ml/RME 2000 ppm). This solution is pipetted onto a glazed tile and after evaporation of the Acetone, adult flies of the species Musca domestica strain WHO-N are placed onto the dried surface. The exposure time is 30 minutes.
(§3) Mortality in percent (%) is determined 24 hours after contact to the treated surface. 100% mortality means that all test-insects are dead, whereas 0% means that not a single insect died.

[2] = test system: Spodoptera frugiperda; test: Spodoptera frugiperda spray test; conditions: 500 g/ha, maize leaf sections, after 7 days
Procedure: Spodoptera frugiperda—Spray Test
(§4) To produce a suitable preparation of active compound, 1 part by weight of active compound is mixed with the stated amount of solvents and is diluted with water, containing an emulsifier concentration of 1000 ppm, to the desired concentration. Further test concentrations are prepared by dilution with emulsifier containing water.
Maize (Zea mays) leaf sections are sprayed with a preparation of the active ingredient of the desired concentration. Once dry, the leaf sections are infested with fall armyworm larvae (Spodoptera frugiperda).
After 7 days mortality in % is determined. 100% means all caterpillars have been killed and 0% means none of the caterpillars have been killed.

[3] = test system: Culex quinquefasciatus strain P00; test: Culex quinquefasciatus test (CULXFA surface treatment & contact assay); conditions: 24 hours after contact
Procedure: Culex quinquefasciatus Test (CULXFA Surface Treatment & Contact Assay)
as §1
as §2, with “mosquitoes” for “flies”, “Culex quinquefasciatus” for “Musca domestica”, “P00” for “WHO-N”
as §3

[4] = test system: Nilaparvata lugens; test: Nilaparvata lugens spray test; conditions: 500 g/ha, rice plants, after 4 days
Procedure: Nilaparvata lugens—Spray Test
as §4
Rice plants (Oryza sativa) are sprayed with a preparation of the active ingredient of the desired concentration and the plants are infested with the brown planthopper (Nilaparvata lugens).
After 4 days mortality in % is determined. 100% means all planthoppers have been killed and 0% means none of the planthoppers have been killed.

[5] = test system: Nezara viridula; test: Nezara viridula spray test; conditions: 500 g/ha, barley plants, after 4 days
Procedure: Nezara viridula—Spray Test
as §4, with “solvent,” for “solvents”, “and the concentrate” for “and”
Barley plants (Hordeum vulgare) infested with larvae of the southern green stink bug (Nezara viridula) are sprayed with a test solution containing the desired concentration of the active ingredient.
After 4 days mortality in % is determined. 100% means all the stink bugs have been killed; 0% means none of the stink bugs have been killed.

[6] = test system: Aedes aegypti strain MONHEIM; test: Aedes aegypti test (AEDSAE surface treatment & contact assay); conditions: 24 hours after contact
Procedure: Aedes aegypti Test (AEDSAE Surface Treatment & Contact Assay)
as §1
as §2, with “mosquitoes” for “flies”, “Aedes aegypti” for “Musca domestica”, “MONHEIM” for “WHO-N”
as §3

[7] = test system: Myzus persicae; test: Myzus persicae spray test; conditions: 500 g/ha, Chinese cabbage leaf disks, after 5 days
Procedure: Myzus persicae—Spray Test
as §4
Chinese cabbage (Brassica pekinensis) leaf disks infected with all instars of the green peach aphid (Myzus persicae), are sprayed with a preparation of the active ingredient of the desired concentration.
(§5) After 5 days mortality in % is determined. 100% means all aphids have been killed and 0% means none of the aphids have been killed.

[8] = test system: Anopheles funestus strain FUMOZ-R; test: Anopheles funestus test (ANPHFU surface treatment & contact assay); conditions: surface concentration 4 mg/m^2, 30 minutes exposure, 24 hours after contact
Procedure: Anopheles funestus Test (ANPHFU Surface Treatment & Contact Assay)
as §1
as §2, with “mosquitoes” for “flies”, “Anopheles funestus” for “Musca domestica”, “FUMOZ-R (Hunt et al., Med Vet Entomol. 2005 September; 19(3):271-5)” for “WHO-N”
as §3

[9] = test system: Myzus persicae; test: Myzus persicae oral test; conditions: 4 ppm, after 5 days
Procedure: To produce a suitable preparation of active compound, 1 part by weight of active compound is mixed with the stated amount of solvent, and the concentrate is diluted with water to the desired concentration.
50 μl compound solution is filled in microtiter plates and 150 μl IPL41 insect medium (33%+15% sugar) is added to obtain a total volume of 200 μl per well. Afterwards the plates are sealed with parafilm through which a mixed population of the green peach aphid (Myzus persicae) can suck on the compound preparation.
as §5

[10] = test system: Ctenocephalides felis; test: Ctenocephalides felis oral test; conditions: 100 ppm in cattle blood, after 2 days
Procedure: Ctenocephalides felis—Oral Test
Solvent: dimethyl sulfoxide
To produce a suitable preparation of active compound, 10 mg of active compound are dissolved in 0.5 ml solvent, and the concentrate is diluted with cattle blood to the desired concentration.
Approximately 20 adult unfed cat fleas (Ctenocephalides felis) are placed in flea chambers. The blood chamber, sealed with parafilm on the bottom, are filled with cattle blood supplied with compound solution and placed on the gauze covered top of the flea chamber, so that the fleas are able to suck the blood. The blood chamber is heated to 37° C. whereas the flea chamber is kept at room temperature.
After 2 days mortality in % is determined. 100% means all the fleas have been killed; 0% means none of the fleas have been killed.

[11] = surface concentration 4 mg/m^2, 30 minutes exposure
[12] = surface concentration 20 mg/m^2, 30 minutes exposure

Structure (SMILES)	efficacy (mortality) [1]	mortality [2] [%]	efficacy (mortality) [3, 11]	efficacy (mortality) [3, 12]	mortality [4] [%]	mortality [5] [%]	efficacy (mortality) [6, 11]	efficacy (mortality) [6, 12]	mortality [7] [%]	efficacy (mortality) [8]	mortality [9] [%]	mortality [10] [%]
CC(c1ncnn1-c1ncccn1)N(CC1CC1)C(=O)c1cc(Cl)cc(S(=O)(=O)C(F)(F)F)c1 (stereo not drawn) [Example I-019]	80-100%	–	–	–	–	–	–	–	–	–	–	–
Cc1nc(C(C)NC(=O)c2cc(Cl)cc(S(C)(=O)=O)c2)n(-c2ncccn2)n1 (stereo not drawn) [Example I-034]	–	83	80-100%	80-100%	100	100	80-100%	90-100%	90	85-100%	100	100
